Where two headings read alike, the source gives them in different places. At least one structure is not confirmed: it was looked up by name or label, or the drawing left a doubt.
What was measured:
Type in all cases: biochemical
[1] = tested on: MCL-1; test: In vitro transcription-translation (IVTT) assay, MCL-1 reporter; conditions: HeLa S3 lysate, read-out: MCL1 IC50
Excerpt: (§1) All reporter constructs have been cloned into the pT7CFE1-CHis plasmid (ThermoFisher #88860) using Gibson assembly procedures (NEB #E2611L). The parental pT7CFE1-CHis plasmid contains an EMCV IRES at the 5′UTR for translation initiation, a multiple-cloning site (MCS) for gene insertion, an optional C-terminal His-epitope tag, and polyA sequence in the 3′UTR to regulate mRNA stability. All reporters are designed to be inserted at the MCS to include a red fluorescent protein (mCherry), P2A self-cleaving peptide which releases the preceding mCherry protein product, and a fusion open reading frame containing a 3×FLAG epitope, a peptide sequence of interest (TEST), and green fluorescent protein (sfGFP).
(§2) Construct Plasmid Preparation: All plasmids are isolated from MACH1 cells (ThermoFisher) grown overnight in ampicillin-containing luria broth, and purified using ZymoPure Express Plasmid Midiprep Kit (Zymo Research). Constructs are sequenced verified and diluted to a working concentration of 110 ng/μL.
(§3) HeLa S3 Lysate Preparation: HeLa S3 cell pellets are acquired from Ipracell/Ipratech (Belgium) and shipped as 4 mL frozen cell pellets on dry ice for storage at −80° C. until use. The procedure for lysate preparation is as follows. Prepare 1× Lysis Buffer, cold and stored on ice:
(§4) Each preparation takes 8 cell pellets (4 ml packed volume each, approximately 1.0×10^9 cells per pellet). Thaw cell pellets from −80° C. on ice for 90 mins. Lay pellets horizontally on top of the ice and rotate every 30 mins to ensure even thawing. Once thawed, add 4 mL of cold lysis buffer to each pellet, and using a serological pipet, gently pipet up and down to break up clumps. Incubate resuspended cells in ice for an additional 30 mins (plunged into ice). During 30 min incubation, rinse and RNase-zap (Ambion) glass dounces (use loose pestle “A”), gently dry and place on ice until needed. Prepare RNase-free Eppendorf tubes for spinning and for batch storage. Add batch labels to 1.5-1.7 mL RNase-free microcentrifuge tubes (labeling scheme below). Each batch will have an extra 1.5-1.7 mL RNase-free microcentrifuge tube for 40 μL of lysate, label the top of this tube (labeling scheme below). After 30 min incubation, transfer all 8 mL of cell pellet to dounce. Cell lysis is complete after douncing 100 times. Aliquot cell lysis into 1.5-1.7 mL temporary-microcentrifuge tubes. Place tubes in centrifuge with “fins” out, and spin at 1,200×g for 5 mins. After the first spin use a 1 mL pipet to resuspend each tube and repeat spin. This acts as an additional lysis step, is more vigorous and increases lysate yield. During second spin get liquid N2 and a fresh conical tube on ice. After spin is complete, transfer supernatant (lysate) from microcentrifuge tubes into the 50 mL conical tube and keep on ice. […]

[2] = tested on: MYC; test: In vitro transcription-translation (IVTT) assay, MYC reporter; conditions: HeLa S3 lysate, normalized sfGFP/mCherry ratio, half-log dilutions 30 μM-0.1 μM, 2 hrs at 30° C.
Excerpt: as §1, §2, §3, §4

[3] = tested on: CCND1; test: In vitro transcription-translation (IVTT) assay, CCND1 reporter; conditions: HeLa S3 lysate
Excerpt: as §1, §2, §3, §4

[4] = tested on: CCNTB1; test: In vitro transcription-translation (IVTT) assay, CCNTB1 reporter; conditions: HeLa S3 lysate, 2 hrs at 30° C.
Procedure: Each preparation takes 8 cell pellets (4 ml packed volume each, approximately 1.0×10^9 cells per pellet). Thaw cell pellets from −80° C. on ice for 90 mins. Lay pellets horizontally on top of the ice and rotate every 30 mins to ensure even thawing. Once thawed, add 4 mL of cold lysis buffer to each pellet, and using a serological pipet, gently pipet up and down to break up clumps. Incubate resuspended cells in ice for an additional 30 mins (plunged into ice). During 30 min incubation, rinse and RNase-zap (Ambion) glass dounces (use loose pestle “A”), gently dry and place on ice until needed. Prepare RNase-free Eppendorf tubes for spinning and for batch storage. […]
In vitro transcription-translation assay setup: Each assay includes a master mix containing lysate and shared components, a 96-well plate containing compound titrations for testing, a 96-well DNA plate with reporter constructs to be tested, 96-well skirted PCR plates, and 96-well flat-bottom, black, fluorescent assay plates. […] After 2 hrs, quench the assay using 45 μL of PBS, and transfer 50 μL to a flat-bottom black microplate Quantify the sfGFP and mCherry signals from each well on each plate, taking 3 reads of each plate, and perform data analysis below.
In vitro transcription-translation assay data analysis: Each plate is read three times in channels for both sfGFP and mCherry signals. […]

[5] = tested on: CCNTB1; test: as above; conditions: HeLa S3 lysate, sfGFP/mCherry ratio
Procedure: In vitro transcription-translation assay setup: Each assay includes a master mix containing lysate and shared components, a 96-well plate containing compound titrations for testing, a 96-well DNA plate with reporter constructs to be tested, 96-well skirted PCR plates, and 96-well flat-bottom, black, fluorescent assay plates. Reaction materials setup: (A) Master mix—15 mL conical tube (3 mL of HeLa S3 Lysate described above; 0.6 mL of ThermoFisher Accessory Proteins (#88882); 1.2 ml of ThermoFisher Reaction Mix (#88882); 0.54 mL of nuclease-free Water); (B) 96-Well Master Mix+Compound Plate (Half-log dilutions (30 μM−0.1 μM) of 4 compounds of interest are prepared in 100% DMSO); 96-Well DNA Plate (Five DNA constructs are plated into single columns within the plate. Row 1 of the column contains nuclease free H2O, all other wells contain 110 ng/μL plasmid DNA). Reactions are started by mixing 155 μL of master mix and 3.5 μL of compound serial dilutions, then 9.1 μL of master mix+compound mixture is aliquoted across 5 96-well plates. Reactions begin with final addition of 2 μL of DNA for a 11.1 μL reaction volume in each well. The entire plate is sealed, and incubated for 2 hrs at 30° C. After 2 hrs, quench the assay using 45 μL of PBS, and transfer 50 μL to a flat-bottom black microplate Quantify the sfGFP and mCherry signals from each well on each plate, taking 3 reads of each plate, and perform data analysis below.
In vitro transcription-translation assay data analysis: Each plate is read three times in channels for both sfGFP and mCherry signals. The average signal across these 3 reads is then calculated for further analysis. Control wells containing no DNA reporter are subtracted from reporter wells in the same column to remove auto-fluorescence of the lysate. Then, the ratio of sfGFP/mCherry is calculated per well, and these ratios are averaged across the triplicate experiments on the same plate. […] The error on this measurement is determined by propagating error through the averaging and normalization steps. […]

[6] = IVTT assay, sfGFP/mCherry ratio

Structure (SMILES): O=C(NCc1cccc(F)c1)O[C@@H]1[C@@H](O)CN[C@@H]1Cc1ccc(OC2CC2)cc1 [V190516, (2R,3S,4S)-2-[(4-cyclopropoxyphenyl)methyl]-4-hydroxypyrrolidin-3-ylN-[(3-fluorophenyl)methyl]carbamate]
- IC50 ([1]; IVTT, 2 hrs at 30° C.): < 10 µM
- IC50 [2]: < 10 µM
- IC50 ([3]; IVTT, 2 hrs at 30° C.): 10 to 20 µM
- IC50 [4]: < 10 µM

Structure (SMILES): O=C(NCc1cccc(F)c1)O[C@@H]1[C@@H](O)CN[C@@H]1Cc1ccc2scnc2c1 [V190552, (2R,3S,4S)-2-(1,3-benzothiazol-5-ylmethyl)-4-hydroxypyrrolidin-3-ylN-[(3-fluorophenyl)methyl]carbamate]
- IC50 [1, 6]: < 10 µM
- IC50 [2]: < 10 µM
- IC50 [5]: < 10 µM
- IC50 [3, 6]: < 10 µM

Structure (SMILES): O=C(NCc1ccc2c(c1)CCNC2)O[C@@H]1[C@@H](O)CN[C@@H]1Cc1ccc(-c2ccc(F)c(F)c2)cc1 [V192057, (2R,3S,4S)-2-({3′,4′-difluoro-[1,1′-biphenyl]-4-yl}methyl)-4-hydroxypyrrolidin-3-ylN-(1,2,3,4-tetrahydroisoquinolin-6-ylmethyl)carbamate]
- IC50 [1, 6]: < 10 µM
- IC50 [2]: < 10 µM
- IC50 [5]: < 10 µM
- IC50 [3, 6]: 10 to 20 µM

Structure (SMILES): O=C(NCc1cccc(F)c1)O[C@@H]1[C@@H](O)CN[C@@H]1Cc1ccc(-c2cnc(N3CCC3)s2)cc1 [V192116, (2R,3S,4S)-2-({4-[2-(azetidin-1-yl)-1,3-thiazol-5-yl]phenyl}methyl)-4-hydroxypyrrolidin-3-ylN-[(3-fluorophenyl)methyl]carbamate]
- IC50 [1, 6]: < 10 µM
- IC50 [2]: < 10 µM
- IC50 [5]: < 10 µM
- IC50 [3, 6]: 10 to 20 µM

Source: patent US20250129021A1, “SMALL MOLECULE PROTEIN SYNTHESIS MODULATORS” (Interdict Bio, Inc., priority 2023, published 2025)
